PubChem BioAssay AID504804, Drosophila RNAi Screening Center, 2011
The screen tested about 19,000 reagents; below is an unselected part of those that have a named target and a result. Of all reagents, 47 (0.25%) are marked active. 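Signals are raw, not normalised; exact z-scores behind calls not deposited; actives needed confirmation, so some wells reaching 2 SD are inactive.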 Names joined by + are all predicted targets of the reagent. Reagent sequences are not shown.

- Test: 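dsRNAs that improve Kc cell survival under doxorubicin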 (primary screen)
- System: Drosophila Kc cells
- Reagent: long dsRNA against Drosophila genes, 0.5 µg dsRNA per well
- Duration: 96 h (48 h knock-down, then 48 h drug)
- Challenge: doxorubicin 5 µg/ml for 48 h, added 48 h after dsRNA
- Measured: 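Luminescent ATP counts per replicate, not normalised, reflecting viable cells after 48 h dsRNA knock-down followed by 48 h of 5 µg/ml doxorubicin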
- Scale: raw ATP luminescence: higher = more viable cells, protection from doxorubicin
- Active means: 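Active when both duplicate wells lie at least 2 SD above the plate mean and protection is confirmed by rescreening and independent dsRNAs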

Gene | amplicon | raw ATP luminescence, replicate 1 | raw ATP luminescence, replicate 2 | Call
CG18661 | DRSC02690 | 39010 | 48687 | inactive
Obp73a (Odorant-binding protein 73a) | DRSC09907 | 51743 | 44007 | inactive
Ugt49B2 (UDP-glycosyltransferase family 49 member B2) | DRSC16049 | 38180 | 47870 | inactive
CG13121 (retired record) | DRSC02217 | 42043 | 85073 | inactive
ppk7 (pickpocket 7) | DRSC03236 | 24427 | 20623 | inactive
CG16989 | DRSC18535 | 43690 | 58890 | inactive
CG12320 | DRSC14498 | 56660 | 75850 | inactive
Nrt (Neurotactin) | DRSC11237 | 28900 | 22897 | inactive
Eglp1 (Entomoglyceroporin 1) | DRSC04502 | 70843 | 83787 | inactive
Snx27 (Sorting nexin 27) | DRSC17786 | 32210 | 47750 | inactive
Snx27 (Sorting nexin 27) | DRSC18282 | 40720 | 41570 | inactive
Snx27 (Sorting nexin 27) | DRSC18284 | 37170 | 48440 | inactive
mael (maelstrom) | DRSC11894 | 38033 | 31193 | inactive
nkd (naked cuticle) | DRSC11376 | 81230 | 51117 | inactive
Ptr (Patched-related) | DRSC04852 | 33360 | 43850 | inactive
alpha-Man-IIb (alpha-Mannosidase class II b) | DRSC16898 | 51843 | 52823 | inactive
ArgRS-m (Arginyl-tRNA synthetase, mitochondrial) | DRSC14186 | 61047 | 51030 | inactive
Mpp6 (M-phase phosphoprotein 6) | DRSC03169 | 54340 | 45873 | inactive
CG4631 | DRSC02766 | 42747 | 66003 | inactive
CG32982 | DRSC01059 | 2.09e5 | 2.25e5 | inactive
CG32982 | DRSC02677 | 47750 | 57050 | inactive
CG32982 | DRSC03268 | 39667 | 62443 | inactive
CG32982 | DRSC03269 | 46313 | 73380 | inactive
CG15533 | DRSC15069 | 39020 | 38090 | inactive
CG31787 | DRSC01632 | 2.32e5 | 2.21e5 | inactive
S-Lap8 (Sperm-Leucylaminopeptidase 8) | DRSC06870 | 47360 | 59007 | inactive
CG14013 | DRSC02344 | 23140 | 31733 | inactive
CG42675 | DRSC12157 | 48933 | 31207 | inactive
Rbbp5 (Retinoblastoma binding protein 5) | DRSC11778 | 59027 | 63130 | inactive
fs(2)ltoPP43 (female sterile (2) ltoPP43) | DRSC02067 | 35963 | 36427 | inactive
CG16926 | DRSC06637 | 54783 | 66097 | inactive
CG5381 | DRSC02852 | 48870 | 59793 | inactive
CG13685 | DRSC10043 | 69780 | 76353 | inactive
mdy (midway) | DRSC01559 | 2.52e5 | 2.55e5 | inactive
mdy (midway) | DRSC02250 | 91413 | 60157 | inactive
GstD5 (Glutathione S transferase D5) | DRSC16686 | 62293 | 67573 | inactive
Arpc2 (Actin-related protein 2/3 complex, subunit 2) | DRSC02113 | 92610 | 83263 | inactive
CG9147 | DRSC03147 | 24397 | 41727 | inactive
CG6138 | DRSC02933 | 51043 | 58633 | inactive
CG15056 | DRSC19630 | 3.89e5 | 2.94e5 | inactive
lin (lines) | DRSC07644 | 37260 | 91293 | inactive
CG4701 | DRSC01952 | 52133 | 83460 | inactive
pon (partner of numb) | DRSC18823 | 50970 | 49020 | inactive
CG15803 | DRSC15121 | 71680 | 83960 | inactive
opa (odd paired) | DRSC12384 | 47050 | 54463 | inactive
RpS19b (Ribosomal protein S19b) | DRSC15773 | 42290 | 43840 | inactive
l(2)10685 (lethal (2) 10685) | DRSC00665 | 1.11e5 | 66233 | inactive
CG7059 | DRSC16187 | 69890 | 47320 | inactive
RPA1 (Replication protein A1) | DRSC16830 | 44583 | 26577 | inactive
Cpr78E (Cuticular protein 78E) | DRSC11807 | 69390 | 84367 | inactive
p24-1 (p24-related-1) | DRSC19827 | 3.11e5 | 3.07e5 | inactive
CG4953 | DRSC02792 | 92347 | 57517 | inactive
CG41520 | DRSC21102 | 1.85e5 | 2.00e5 | inactive
CG41520 | DRSC21103 | 3.07e5 | 2.71e5 | inactive
PolG1 (DNA polymerase gamma subunit 1) | DRSC03621 | 67020 | 92037 | inactive
CG7458 | DRSC11829 | 72890 | 55197 | inactive
CG7744 | DRSC07036 | 71353 | 81413 | inactive
jim | DRSC11889 | 40070 | 29360 | inactive
CG14402 | DRSC02386 | 69780 | 66310 | inactive
Mon1 (Monensin sensitivity 1) | DRSC00336 | 21273 | 28003 | inactive
Uch (Ubiquitin carboxy-terminal hydrolase) | DRSC00797 | 1.01e5 | 90633 | inactive
knrl (knirps-like) | DRSC11892 | 29870 | 29490 | inactive
Elp1 (Elongator complex protein 1) | DRSC14250 | 51280 | 30893 | inactive
CG4041 | DRSC18339 | 48670 | 49500 | inactive
Wnk (Wnk kinase) | DRSC11813 | 45897 | 51023 | inactive
trus (toys are us) | DRSC15772 | 52773 | 44763 | inactive
CG5810 | DRSC15880 | 38160 | 34350 | inactive
yellow-e2 | DRSC15169 | 88130 | 76480 | inactive
Sou (Souji) | DRSC04356 | 61970 | 63610 | inactive
CG7523 | DRSC16254 | 36667 | 38797 | inactive
CG42662 + CG30080 | DRSC05571 | 1.10e5 | 1.19e5 | inactive
ZnT77C (Zinc transporter 77C) | DRSC11766 | 63307 | 65647 | inactive
ZnT77C (Zinc transporter 77C) | DRSC11767 | 86107 | 83957 | inactive
Agpat2 (1-Acylglycerol-3-phosphate O-acyltransferase 2) | DRSC03532 | 1.07e5 | 79450 | inactive
Pgant4 (Polypeptide N-Acetylgalactosaminyltransferase 4) | DRSC00717 | 29113 | 31693 | inactive
Rpp25 (Ribonuclease P/MRP subunit p25) | DRSC05002 | 62050 | 57177 | inactive
gus (gustavus) | DRSC04885 | 56783 | 56653 | inactive
gus (gustavus) | DRSC04886 | 44743 | 45717 | inactive
Spn28B (Serpin 28B) | DRSC02982 | 24587 | 22520 | inactive
MED31 (Mediator complex subunit 31) | DRSC12142 | 20463 | 19903 | inactive
Rpp20 + CG33932 | DRSC19467 | 2.49e5 | 2.59e5 | inactive
timeout | DRSC12950 | 2.07e5 | 1.76e5 | inactive
timeout | DRSC17078 | 77650 | 50270 | inactive
timeout | DRSC17079 | 77600 | 57340 | inactive
timeout | DRSC17080 | 78110 | 62720 | inactive
timeout | DRSC17081 | 92530 | 68170 | inactive
